Data published in the supplement of paper PMC10849652.
The list shows a part of the results.

By UniProt entry, the sequences of proteins in these tests, tags left out. Where a name states a change or a piece, a line headed by the entry shows the natural chain unless it says otherwise.
UniProt Q8IV63: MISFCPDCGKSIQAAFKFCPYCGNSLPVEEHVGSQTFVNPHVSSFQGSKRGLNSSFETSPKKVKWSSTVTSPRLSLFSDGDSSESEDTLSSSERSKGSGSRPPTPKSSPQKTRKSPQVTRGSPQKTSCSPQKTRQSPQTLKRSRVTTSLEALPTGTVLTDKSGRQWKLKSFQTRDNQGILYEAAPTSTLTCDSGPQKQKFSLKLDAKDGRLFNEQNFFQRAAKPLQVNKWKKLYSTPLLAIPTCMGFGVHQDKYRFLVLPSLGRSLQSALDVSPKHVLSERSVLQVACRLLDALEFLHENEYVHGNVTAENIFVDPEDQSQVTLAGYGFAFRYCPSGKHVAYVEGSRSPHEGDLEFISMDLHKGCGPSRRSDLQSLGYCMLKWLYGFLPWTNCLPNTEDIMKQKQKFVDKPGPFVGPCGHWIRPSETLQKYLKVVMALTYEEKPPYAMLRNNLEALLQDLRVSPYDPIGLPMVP
UniProt Q96S55: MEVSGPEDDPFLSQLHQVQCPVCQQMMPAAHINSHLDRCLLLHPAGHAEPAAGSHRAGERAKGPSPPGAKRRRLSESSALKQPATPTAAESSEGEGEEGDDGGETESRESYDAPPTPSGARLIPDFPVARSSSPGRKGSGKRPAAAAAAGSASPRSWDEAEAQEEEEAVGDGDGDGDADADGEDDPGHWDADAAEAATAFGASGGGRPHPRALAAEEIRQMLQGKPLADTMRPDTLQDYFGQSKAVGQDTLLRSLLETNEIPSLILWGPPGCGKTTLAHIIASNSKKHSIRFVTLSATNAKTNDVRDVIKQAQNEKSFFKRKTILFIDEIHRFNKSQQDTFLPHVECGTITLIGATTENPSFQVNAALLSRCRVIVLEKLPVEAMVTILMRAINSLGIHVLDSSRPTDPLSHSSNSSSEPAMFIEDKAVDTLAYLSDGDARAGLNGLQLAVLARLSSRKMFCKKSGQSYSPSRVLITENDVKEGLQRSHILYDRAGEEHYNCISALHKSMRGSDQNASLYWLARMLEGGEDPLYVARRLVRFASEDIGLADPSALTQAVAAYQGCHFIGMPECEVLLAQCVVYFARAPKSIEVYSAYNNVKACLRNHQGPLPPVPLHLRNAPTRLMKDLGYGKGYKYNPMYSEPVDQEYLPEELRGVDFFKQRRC
UniProt Q9Y3C0: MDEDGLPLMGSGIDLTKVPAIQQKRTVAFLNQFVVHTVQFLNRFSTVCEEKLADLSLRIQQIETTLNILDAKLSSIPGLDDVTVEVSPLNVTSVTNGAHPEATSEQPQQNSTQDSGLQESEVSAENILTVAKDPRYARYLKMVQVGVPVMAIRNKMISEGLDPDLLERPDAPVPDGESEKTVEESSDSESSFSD
UniProt Q562E7: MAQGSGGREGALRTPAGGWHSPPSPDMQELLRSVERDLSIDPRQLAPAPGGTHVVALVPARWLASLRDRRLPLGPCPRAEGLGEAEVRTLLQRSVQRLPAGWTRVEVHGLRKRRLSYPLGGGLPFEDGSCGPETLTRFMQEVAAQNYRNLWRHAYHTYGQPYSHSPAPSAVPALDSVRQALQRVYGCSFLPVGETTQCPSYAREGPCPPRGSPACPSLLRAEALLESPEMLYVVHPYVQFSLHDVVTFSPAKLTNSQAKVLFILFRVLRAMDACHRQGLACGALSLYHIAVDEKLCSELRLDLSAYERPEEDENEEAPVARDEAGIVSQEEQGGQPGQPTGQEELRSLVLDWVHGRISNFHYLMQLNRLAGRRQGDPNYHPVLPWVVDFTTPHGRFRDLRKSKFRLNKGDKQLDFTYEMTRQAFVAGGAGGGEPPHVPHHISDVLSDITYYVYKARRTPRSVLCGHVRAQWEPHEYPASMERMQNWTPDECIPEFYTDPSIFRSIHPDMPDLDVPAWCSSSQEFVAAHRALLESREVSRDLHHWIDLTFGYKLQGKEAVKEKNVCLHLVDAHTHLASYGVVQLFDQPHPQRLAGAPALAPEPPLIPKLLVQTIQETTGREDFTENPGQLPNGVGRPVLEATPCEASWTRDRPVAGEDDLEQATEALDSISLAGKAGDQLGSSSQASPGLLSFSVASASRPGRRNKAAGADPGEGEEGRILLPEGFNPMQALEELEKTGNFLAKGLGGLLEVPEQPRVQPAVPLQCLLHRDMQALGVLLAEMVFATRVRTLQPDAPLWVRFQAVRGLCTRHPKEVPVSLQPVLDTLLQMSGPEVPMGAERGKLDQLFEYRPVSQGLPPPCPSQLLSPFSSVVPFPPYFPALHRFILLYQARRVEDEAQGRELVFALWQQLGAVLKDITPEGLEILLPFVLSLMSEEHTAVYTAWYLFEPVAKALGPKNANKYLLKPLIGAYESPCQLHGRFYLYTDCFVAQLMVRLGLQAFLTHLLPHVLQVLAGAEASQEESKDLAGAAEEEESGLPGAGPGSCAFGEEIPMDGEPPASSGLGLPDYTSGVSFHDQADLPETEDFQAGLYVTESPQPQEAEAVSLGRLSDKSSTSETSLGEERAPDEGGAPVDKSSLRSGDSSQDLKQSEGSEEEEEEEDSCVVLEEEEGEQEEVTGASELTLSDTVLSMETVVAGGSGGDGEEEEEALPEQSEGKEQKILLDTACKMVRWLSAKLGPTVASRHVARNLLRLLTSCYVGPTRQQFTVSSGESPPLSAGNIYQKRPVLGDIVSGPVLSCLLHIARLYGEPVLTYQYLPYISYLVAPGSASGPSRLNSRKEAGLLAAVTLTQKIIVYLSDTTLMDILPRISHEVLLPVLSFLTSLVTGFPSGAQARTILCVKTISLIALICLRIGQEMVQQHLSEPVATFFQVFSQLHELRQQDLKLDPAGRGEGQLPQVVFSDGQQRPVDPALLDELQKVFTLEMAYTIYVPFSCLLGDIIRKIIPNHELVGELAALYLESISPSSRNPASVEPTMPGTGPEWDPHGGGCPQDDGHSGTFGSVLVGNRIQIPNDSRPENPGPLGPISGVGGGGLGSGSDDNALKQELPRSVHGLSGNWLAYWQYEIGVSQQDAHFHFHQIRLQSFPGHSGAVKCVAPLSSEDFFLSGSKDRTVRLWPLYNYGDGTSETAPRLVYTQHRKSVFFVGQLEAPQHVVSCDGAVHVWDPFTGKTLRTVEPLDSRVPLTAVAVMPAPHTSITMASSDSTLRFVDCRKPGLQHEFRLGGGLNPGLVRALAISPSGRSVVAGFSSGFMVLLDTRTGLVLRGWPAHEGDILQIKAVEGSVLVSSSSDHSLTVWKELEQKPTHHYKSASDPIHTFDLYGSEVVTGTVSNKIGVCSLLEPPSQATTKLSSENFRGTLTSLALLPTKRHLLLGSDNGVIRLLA
UniProt Q96AJ9: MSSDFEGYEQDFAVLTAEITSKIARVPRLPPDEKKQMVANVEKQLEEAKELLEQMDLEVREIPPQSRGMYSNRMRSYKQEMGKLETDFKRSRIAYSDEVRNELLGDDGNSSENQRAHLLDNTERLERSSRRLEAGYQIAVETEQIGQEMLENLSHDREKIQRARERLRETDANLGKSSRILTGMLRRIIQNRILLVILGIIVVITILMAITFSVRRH
UniProt Q5VIR6: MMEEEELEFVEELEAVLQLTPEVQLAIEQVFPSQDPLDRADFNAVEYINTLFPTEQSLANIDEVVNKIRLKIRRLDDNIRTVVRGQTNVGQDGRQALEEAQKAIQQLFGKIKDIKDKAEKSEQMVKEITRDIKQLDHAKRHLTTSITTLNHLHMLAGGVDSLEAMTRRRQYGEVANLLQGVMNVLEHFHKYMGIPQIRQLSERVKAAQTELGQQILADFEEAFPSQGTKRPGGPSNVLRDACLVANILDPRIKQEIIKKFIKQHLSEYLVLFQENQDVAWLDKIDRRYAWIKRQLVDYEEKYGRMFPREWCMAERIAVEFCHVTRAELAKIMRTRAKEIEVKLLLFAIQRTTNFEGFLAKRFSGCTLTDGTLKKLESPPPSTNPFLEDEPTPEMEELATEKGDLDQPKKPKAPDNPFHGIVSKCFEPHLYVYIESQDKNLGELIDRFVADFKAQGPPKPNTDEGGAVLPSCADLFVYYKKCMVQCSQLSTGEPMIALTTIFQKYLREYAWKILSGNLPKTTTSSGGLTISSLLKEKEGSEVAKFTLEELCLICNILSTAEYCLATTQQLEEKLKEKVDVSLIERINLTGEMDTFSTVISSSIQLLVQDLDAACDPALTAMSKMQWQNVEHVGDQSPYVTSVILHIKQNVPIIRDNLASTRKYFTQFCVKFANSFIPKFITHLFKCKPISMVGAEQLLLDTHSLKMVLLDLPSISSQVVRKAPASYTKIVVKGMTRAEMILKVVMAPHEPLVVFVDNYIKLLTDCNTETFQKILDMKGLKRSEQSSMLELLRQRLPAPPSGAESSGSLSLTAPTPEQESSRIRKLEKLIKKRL
UniProt Q9P2L0: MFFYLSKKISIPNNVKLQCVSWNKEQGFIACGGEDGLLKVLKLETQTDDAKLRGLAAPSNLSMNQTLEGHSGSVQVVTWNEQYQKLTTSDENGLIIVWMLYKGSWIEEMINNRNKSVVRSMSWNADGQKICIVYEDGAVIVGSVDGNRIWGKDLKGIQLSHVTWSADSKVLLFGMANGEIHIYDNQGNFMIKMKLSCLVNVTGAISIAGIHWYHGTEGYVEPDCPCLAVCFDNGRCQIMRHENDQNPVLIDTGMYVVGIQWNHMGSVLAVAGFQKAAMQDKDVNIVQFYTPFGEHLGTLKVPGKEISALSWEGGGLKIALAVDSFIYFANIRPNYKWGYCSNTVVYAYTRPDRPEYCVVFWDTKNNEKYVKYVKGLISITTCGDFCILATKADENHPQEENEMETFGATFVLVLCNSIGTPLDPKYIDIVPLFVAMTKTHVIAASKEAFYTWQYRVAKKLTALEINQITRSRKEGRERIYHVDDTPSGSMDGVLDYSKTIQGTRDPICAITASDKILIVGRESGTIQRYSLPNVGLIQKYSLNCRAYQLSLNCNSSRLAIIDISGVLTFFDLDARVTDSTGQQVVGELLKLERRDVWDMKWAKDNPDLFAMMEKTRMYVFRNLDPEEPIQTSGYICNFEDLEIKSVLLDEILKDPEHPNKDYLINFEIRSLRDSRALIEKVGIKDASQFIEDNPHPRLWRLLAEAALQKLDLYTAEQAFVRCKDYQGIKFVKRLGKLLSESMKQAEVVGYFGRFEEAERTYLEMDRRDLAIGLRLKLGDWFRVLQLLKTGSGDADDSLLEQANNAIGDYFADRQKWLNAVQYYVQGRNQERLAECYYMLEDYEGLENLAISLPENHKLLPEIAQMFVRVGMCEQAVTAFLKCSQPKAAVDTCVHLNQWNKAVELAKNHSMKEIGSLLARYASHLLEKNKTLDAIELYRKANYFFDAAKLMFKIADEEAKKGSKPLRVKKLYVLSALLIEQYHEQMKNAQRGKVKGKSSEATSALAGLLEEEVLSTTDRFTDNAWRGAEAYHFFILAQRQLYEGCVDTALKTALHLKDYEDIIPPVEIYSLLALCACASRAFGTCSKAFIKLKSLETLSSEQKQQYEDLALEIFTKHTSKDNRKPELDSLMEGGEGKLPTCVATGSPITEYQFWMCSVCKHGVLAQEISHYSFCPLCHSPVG

Legend:
Assay in all cases: log2 fold change, soluble protein after heating vs DMSO (PISA); higher = thermal stabilisation; K562 lysate, 10 uM; active = over 0.2 and 3.5 SD of the protein, either way, in both replicates (recomputed)
ibrutinib = compound: C=CC(=O)N1CCC[C@@H](n2nc(-c3ccc(Oc4ccccc4)cc3)c3c(N)ncnc32)C1 [ibrutinib]
Method in brief: (§1)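 Values give the log-two fold change in thermal stability against solvent controls, from duplicates. Crude K562 extract at 1 mg/mL protein, made by dounce homogenisation in PBS pH 7.4 with 1 mM MgCl2, was treated with 10 μM compound for 30 min. After 3 min heating across 48°C-58°C, aliquots were pooled, adjusted to 0.5% NP-40 at 4°C and centrifuged at 21,000xg for 90 min. The supernatant was measured by TMTpro 16plex LC-MS/MS with channel sums equalised.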

[1] = compound: CC(=O)c1cnc2ccc(-c3cc(Cl)c(O)c(Cl)c3)nc2c1N[C@H]1CC[C@H](CN(C)C)CC1
Method in brief: as §1

ralimetinib = compound: CC(C)(C)Cn1c(N)nc2ccc(-c3[nH]c(C(C)(C)C)nc3-c3ccc(F)cc3)nc21 [ralimetinib]
Method in brief: as §1

[2] = compound: CC(C)(O)CC(=O)NCCn1ccc2ncnc(Nc3ccc(Oc4cccc(C(F)(F)F)c4)c(Cl)c3)c21
Method in brief: as §1

[3] = compound: CC(C)C1=C2N=C(C=C(N2N=C1)NCC3=CC=CC=C3)NCCCCCCN
Method in brief: as §1

[4] = compound: CC1=C(C(CC(=O)N1)C2=CC=C(C=C2)C(F)(F)F)C(=O)NC3=C(C=C4C(=C3)C=NN4)F
Method in brief: as §1

[5] = compound: CC1=C(C2=C(C=C1)C(=O)C3=CC=CC=C3N2CCCN)C
Method in brief: as §1

[6] = compound: CC1=C(C=C(C=C1)NC(=O)C2=CC(=CC=C2)C(C)(C)C#N)NC3=CC4=C(C=C3)N=CN(C4=O)C
Method in brief: as §1

[7] = compound: CC1=C(C=C(C=C1)NC(=O)C2=CC(=CC=C2)N(C)C)NC(=O)C3=CC=C(C=C3)O
Method in brief: as §1

[8] = compound: CC1=CC=C(C=C1)SC2=C3C=C(SC3=CN=C2)C(=O)N
Method in brief: as §1

vemurafenib = compound: CCCS(=O)(=O)Nc1ccc(F)c(C(=O)c2c[nH]c3ncc(-c4ccc(Cl)cc4)cc23)c1F [vemurafenib]
Method in brief: as §1

[9] = compound: CCCS(=O)(=O)Nc1ccc(F)c(C(=O)c2c[nH]c3ncc(Cl)cc23)c1F
Method in brief: as §1

barasertib = compound: CCN(CCCOc1ccc2c(Nc3cc(CC(=O)Nc4cccc(F)c4)[nH]n3)ncnc2c1)CCOP(=O)(O)O [barasertib]
Method in brief: as §1

[10] = compound: CC[C@@H]1C(=O)N(C)c2cnc(Nc3ccc(C(=O)NC4CCN(C)CC4)cc3OC)nc2N1C1CCCC1
Method in brief: as §1

volasertib = compound: CC[C@@H]1C(=O)N(C)c2cnc(Nc3ccc(C(=O)N[C@H]4CC[C@H](N5CCN(CC6CC6)CC5)CC4)cc3OC)nc2N1C(C)C [volasertib]
Method in brief: as §1

[11] = compound: CCn1c(C(=O)N(C2CC2)C2CC2)cc2c3c(ncn3C)c(Nc3cc(C)n(C)n3)nc21
Method in brief: as §1

[12] = compound: CCn1cc(-c2ccnc3[nH]c(-c4cccc(CN(C)C)c4)cc23)c(-c2ccc(NC(=O)N(C)C)cc2)n1
Method in brief: as §1

[13] = compound: CN1CCC(CNc2ccc3ncc(-c4cccc(OC(F)(F)F)c4)n3n2)CC1
Method in brief: as §1

saracatinib = compound: CN1CCN(CCOc2cc(OC3CCOCC3)c3c(Nc4c(Cl)ccc5c4OCO5)ncnc3c2)CC1 [saracatinib]
Method in brief: as §1

sotrastaurin = compound: CN1CCN(c2nc(C3=C(c4c[nH]c5ccccc45)C(=O)NC3=O)c3ccccc3n2)CC1 [sotrastaurin]
Method in brief: as §1

Measured: log2 fold change

VRK3 (UniProt Q8IV63)
inactive: ibrutinib 0.031 | [1] -0.045 | ralimetinib 0.009 | [2] -0.014 | [3] -0.025 | [4] 0.006 | [5] -0.04 | [6] -0.031 | [7] 0.023 | [8] 0.168 | vemurafenib 0.044 | [9] 0.044 | barasertib 0.013 | [10] 0.016 | volasertib -0.023 | [11] 0.081 | [12] -0.002 | [13] 0.063 | saracatinib 0.012 | sotrastaurin -0.003

VPS35L (UniProt Q7Z3J2)
inactive: ibrutinib 0.011 | [1] 0.023 | ralimetinib -0.003 | [2] -0.032 | [3] 0.003 | [4] 0.007 | [5] 0.018 | [6] -0.021 | [7] 0.009 | [8] -0.005 | vemurafenib 0.016 | [9] 0.002 | barasertib 0.001 | [10] -0.072 | volasertib -0.047 | [11] -0.004 | [12] -0.02 | [13] -0.005 | saracatinib 0.004 | sotrastaurin 0.046

WDR43 (UniProt Q15061)
inactive: ibrutinib -0.004 | [1] 0 | ralimetinib 0.083 | [2] -0.015 | [3] 0.002 | [4] 0.003 | [5] 0.003 | [6] 0.003 | [7] 0.028 | [8] -0.027 | vemurafenib -0.05 | [9] 0.03 | barasertib 0.002 | [10] -0.037 | volasertib 0 | [11] 0.027 | [12] -0.029 | [13] 0.016 | saracatinib 0.04 | sotrastaurin 0.033

WRNIP1 (UniProt Q96S55)
inactive: ibrutinib 0.025 | [1] 0.026 | ralimetinib 0.051 | [2] 0.026 | [3] 0.001 | [4] 0.045 | [5] 0.013 | [6] -0.023 | [7] -0.003 | [8] -0.023 | vemurafenib 0.036 | [9] 0.042 | barasertib 0.064 | [10] -0.114 | volasertib -0.128 | [11] 0.014 | [12] -0.026 | [13] 0.03 | saracatinib -0.006 | sotrastaurin 0.042

WASHC3 (UniProt Q9Y3C0)
inactive: ibrutinib 0.004 | [1] -0.014 | ralimetinib 0.037 | [2] -0.022 | [3] -0.005 | [4] 0.017 | [5] -0.012 | [6] -0.004 | [7] -0.008 | [8] 0.014 | vemurafenib -0.009 | [9] -0.015 | barasertib -0.059 | [10] 0.099 | volasertib 0.033 | [11] -0.047 | [12] -0.003 | [13] -0.035 | saracatinib -0.007 | sotrastaurin 0.009

WDR81 (UniProt Q562E7)
inactive: ibrutinib 0.019 | [1] -0.004 | ralimetinib 0.023 | [2] -0.067 | [3] -0.002 | [4] 0.046 | [5] -0.025 | [6] -0.044 | [7] 0.026 | [8] 0.018 | vemurafenib -0.011 | [9] -0.001 | barasertib 0.025 | [10] -0.009 | volasertib -0.02 | [11] -0.079 | [12] 0.012 | [13] -0.028 | saracatinib 0.022 | sotrastaurin -0.002

WDR55 (UniProt Q9H6Y2)
inactive: ibrutinib 0.047 | [1] -0.027 | ralimetinib 0.039 | [2] 0.01 | [3] -0.018 | [4] -0.011 | [5] -0.04 | [6] 0 | [7] 0.022 | [8] 0.012 | vemurafenib 0.029 | [9] -0.056 | barasertib 0.046 | [10] -0.068 | volasertib 0.035 | [11] 0.02 | [12] -0.026 | [13] 0.028 | saracatinib 0.007 | sotrastaurin 0.049

WASF2 (UniProt Q9Y6W5)
inactive: ibrutinib -0.023 | [1] 0.01 | ralimetinib 0.032 | [2] 0.018 | [3] -0.011 | [4] 0.011 | [5] -0.001 | [6] -0.026 | [7] 0.018 | [8] 0.004 | vemurafenib 0.034 | [9] 0.036 | barasertib -0.004 | [10] 0.011 | volasertib -0.019 | [11] 0.014 | [12] -0.007 | [13] 0.012 | saracatinib 0 | sotrastaurin -0.016

VKORC1 (UniProt Q9BQB6)
inactive: ibrutinib -0.041 | [1] -0.056 | ralimetinib -0.012 | [2] -0.078 | [3] 0.019 | [4] 0.025 | [5] -0.003 | [6] 0.195 | [7] 0.03 | [8] -0.108 | vemurafenib -0.035 | [9] 0.072 | barasertib 0.139 | [10] 0.009 | volasertib 0.051 | [11] 0.023 | [12] -0.046 | [13] 0.094 | saracatinib -0.059 | sotrastaurin -0.022

VTI1A (UniProt Q96AJ9)
inactive: ibrutinib 0.068 | [1] 0.001 | ralimetinib -0.003 | [2] 0.002 | [3] 0.017 | [4] -0.026 | [5] -0.001 | [6] 0.013 | [7] 0.01 | [8] -0.054 | vemurafenib 0.01 | [9] 0.032 | barasertib -0.003 | [10] -0.03 | volasertib -0.024 | [11] 0.008 | [12] 0.041 | [13] -0.043 | saracatinib -0.039 | sotrastaurin -0.008

Reprinted from the listing (two entries):
WDR81 (UniProt Q562E7)
inactive: ibrutinib 0.019 | [1] -0.004 | ralimetinib 0.023 | [2] -0.067 | [3] -0.002 | [4] 0.046 | [5] -0.025 | [6] -0.044 | [7] 0.026 | [8] 0.018 | vemurafenib -0.011 | [9] -0.001 | barasertib 0.025 | [10] -0.009 | volasertib -0.02 | [11] -0.079 | [12] 0.012 | [13] -0.028 | saracatinib 0.022 | sotrastaurin -0.002

WDR55 (UniProt Q9H6Y2)
inactive: ibrutinib 0.047 | [1] -0.027 | ralimetinib 0.039 | [2] 0.01 | [3] -0.018 | [4] -0.011 | [5] -0.04 | [6] 0 | [7] 0.022 | [8] 0.012 | vemurafenib 0.029 | [9] -0.056 | barasertib 0.046 | [10] -0.068 | volasertib 0.035 | [11] 0.02 | [12] -0.026 | [13] 0.028 | saracatinib 0.007 | sotrastaurin 0.049

(continued)

VPS53 isoform 4 (UniProt Q5VIR6)
inactive: ibrutinib -0.015 | [1] -0.016 | ralimetinib 0.02 | [2] -0.044 | [3] -0.012 | [4] 0.012 | [5] 0.003 | [6] 0.003 | [7] 0.036 | [8] -0.024 | vemurafenib -0.003 | [9] 0.019 | barasertib 0.059 | [10] -0.004 | volasertib -0.028 | [11] 0.004 | [12] 0.009 | [13] -0.046 | saracatinib 0.024 | sotrastaurin 0.025

WDR35 (UniProt Q9P2L0)
inactive: ralimetinib 0.002 | [2] -0.37 | [7] 0.283 | [11] 0.261
